{"sequences": {"note": "Sequences of proteins named here, by UniProt entry; tags and fusion partners are left off.", "UniProt P61289": "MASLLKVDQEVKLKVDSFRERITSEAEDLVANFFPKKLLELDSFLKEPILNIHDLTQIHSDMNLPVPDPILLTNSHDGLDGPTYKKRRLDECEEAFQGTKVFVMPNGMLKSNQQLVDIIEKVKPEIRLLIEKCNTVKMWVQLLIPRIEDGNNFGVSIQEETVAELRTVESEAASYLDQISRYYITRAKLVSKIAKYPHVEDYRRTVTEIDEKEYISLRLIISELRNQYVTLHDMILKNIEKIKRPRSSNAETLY", "UniProt O15105": "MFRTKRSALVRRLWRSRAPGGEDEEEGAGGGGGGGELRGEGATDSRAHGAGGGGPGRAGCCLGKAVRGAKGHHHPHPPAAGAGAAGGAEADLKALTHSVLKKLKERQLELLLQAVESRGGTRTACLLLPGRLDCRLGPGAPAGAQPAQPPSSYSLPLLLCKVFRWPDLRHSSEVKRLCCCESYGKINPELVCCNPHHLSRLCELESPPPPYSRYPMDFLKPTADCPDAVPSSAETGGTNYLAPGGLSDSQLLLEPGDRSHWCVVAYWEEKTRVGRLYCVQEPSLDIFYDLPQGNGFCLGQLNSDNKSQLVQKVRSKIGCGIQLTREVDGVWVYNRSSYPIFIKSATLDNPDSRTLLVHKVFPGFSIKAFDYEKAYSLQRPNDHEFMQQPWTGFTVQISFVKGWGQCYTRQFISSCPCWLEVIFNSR"}, "source": "paper PMC7205985", "key": {"HA-REGγ": {"target": "HA-REGγ (UniProt P61289)", "assay": "co-IP; HEK293 cells transiently co-transfected with pcDNA3.1-HA-REGγ and pcDNA3.1-Flag-Smad7 for 48 h; CHAPS lysis buffer; extracts incubated overnight with 2.5 µg anti-HA or anti-Flag antibody and Protein G beads; western blot; reciprocal"}, "Flag-Smad7": {"target": "Flag-Smad7 (UniProt O15105)", "assay": "co-IP; HEK293 cells transiently co-transfected with pcDNA3.1-HA-REGγ and pcDNA3.1-Flag-Smad7 for 48 h; CHAPS lysis buffer; extracts incubated overnight with 2.5 µg anti-HA or anti-Flag antibody and Protein G beads; western blot; reciprocal"}}, "note": "Results are given in words; binding and its absence hold for the method and conditions named. Binding seen in cells or lysates may run through a third protein. Some results given as binding are weak or reduced against the parent protein; the word gives no strength."}
{"substance": "Flag-Smad7 (from UniProt O15105 1-426)", "values": [{"measurement": "binding", "setting": "HA-REGγ", "value": "binds"}]}
{"substance": "HA-REGγ (from UniProt P61289 1-254)", "values": [{"measurement": "binding", "setting": "Flag-Smad7", "value": "binds"}]}
